# From PubChem BioAssay AID248 (DTP/NCI, 2004)
# The list shows only some results of the screen, not a fair sample: it is rich in T/C values a quarter to a half above the control, in often repeated tests (any T/C) and in doses without a T/C. Further doses and runs are listed elsewhere. T/C: endpoint of the treated group in % of that of the vehicle group. Some entries give survivors of the animals treated and no T/C: the source holds a T/C of zero for them, seemingly a mark for toxic or unscored doses. Some survivor counts are full or nearly so, which does not show that the dose was tolerated: survival well below the control is almost never listed, so the zero probably covers shortened survival too. Counts of survivors are from the toxicity check (mostly the fifth day) where no day follows; animals may have died later. Schedule codes are those of the source, read here as Q, the interval in days (D) or hours (H), X, the number of doses. Some entries were tested several times; the results are listed from low to high. Some schedule codes hold Z or #, which are not explained here. For survival time, the PubChem record calls one and a half times the control and up active, and a quarter to a half above the control has no call in these data; cut-offs in other NCI protocols can differ. Some T/C values carry the count of animals alive at the toxicity check (mostly the fifth day); where none is given, no animal had died by that day.
# Tested on: L1210 leukemia ip in BDF1 mice, survival T/C
# Assay: NCI In Vivo Anticancer Drug Screen. Data for tumor model L1210 Leukemia (intraperitoneal) in B6D2F1 (BDF1) mice
# Settings: higher T/C = longer survival
# [1] = T/C endpoint: mean survival time, dose: 10.0 mg/kg/injection, schedule: Q01DX001 (ip), vehicle: saline
# [2] = T/C endpoint: mean survival time, dose: 20.0 mg/kg/injection, schedule: Q01DX001 (ip), vehicle: saline
# [3] = T/C endpoint: mean survival time, dose: 40.0 mg/kg/injection, schedule: Q01DX001 (ip), vehicle: saline
# [4] = T/C endpoint: mean survival time, dose: 80.0 mg/kg/injection, schedule: Q01DX001 (ip), vehicle: saline
# [5] = T/C endpoint: mean survival time, dose: 100.0 mg/kg/injection, schedule: Q01DX001 (ip), vehicle: saline
# [6] = T/C endpoint: mean survival time, dose: 200.0 mg/kg/injection, schedule: Q01DX001 (ip), vehicle: saline
# [7] = T/C endpoint: mean survival time, dose: 400.0 mg/kg/injection, schedule: Q01DX001 (ip), vehicle: saline
# [8] = T/C endpoint: mean survival time, dose: 200.0 mg/kg/injection, schedule: Q01DX009 (ip), vehicle: Klucel (hydroxypropylcellulose) (HPC)
# [9] = T/C endpoint: mean survival time, dose: 100.0 mg/kg/injection, schedule: Q01DX009 (ip), vehicle: acetone
# [10] = T/C endpoint: mean survival time, dose: 300.0 mg/kg/injection, schedule: Q01DX001 (ip), vehicle: saline
# [11] = T/C endpoint: mean survival time, dose: 200.0 mg/kg/injection, schedule: Q01DX009 (ip), vehicle: saline
# [12] = T/C endpoint: mean survival time, dose: 400.0 mg/kg/injection, schedule: Q04DX003 (ip), vehicle: saline with Tween-80
# [13] = T/C endpoint: mean survival time, dose: 400.0 mg/kg/injection, schedule: Q04DX002 (ip), vehicle: saline with Tween-80
smiles,measurement,setting,value
CC1(C)N=C(c2ccccc2)C2(c3ccccc3)N1C2(C)C (centres undefined),survivor count,"T/C endpoint: mean survival time, dose: 25.0 mg/kg/injection, schedule: Q01DX001 (ip), vehicle: Klucel (hydroxypropylcellulose) (HPC)",0 of 6
same,survivor count,"T/C endpoint: mean survival time, dose: 50.0 mg/kg/injection, schedule: Q01DX001 (ip), vehicle: Klucel (hydroxypropylcellulose) (HPC)",0 of 6
same,survivor count,"T/C endpoint: mean survival time, dose: 100.0 mg/kg/injection, schedule: Q01DX001 (ip), vehicle: Klucel (hydroxypropylcellulose) (HPC)",0 of 6
same,survivor count,"T/C endpoint: mean survival time, dose: 200.0 mg/kg/injection, schedule: Q01DX001 (ip), vehicle: Klucel (hydroxypropylcellulose) (HPC)",0 of 6
same,survivor count,"T/C endpoint: mean survival time, dose: 400.0 mg/kg/injection, schedule: Q01DX001 (ip), vehicle: Klucel (hydroxypropylcellulose) (HPC)",0 of 6
CC(Cl)CN(C)c1ccc2ccccc2c1 (centres undefined),survivor count,"T/C endpoint: median survival time, dose: 400.0 mg/kg/injection, schedule: Q01DX009 (ip), vehicle: Klucel (hydroxypropylcellulose) (HPC)",0 of 6
CC(=O)OC1=C(c2ccccc2)C(=O)c2ccccc21,survivor count,"T/C endpoint: mean survival time, dose: 300.0 mg/kg/injection, schedule: Q01DX001 (ip), vehicle: Klucel (hydroxypropylcellulose) (HPC)",3 of 6
CCC[CH2][Sn]1([CH2]CCC)[O]C(=O)c2ccc(C(=O)O)cc2C(=O)[O]1,survivor count,[1],4 of 6
same,survivor count,[2],2 of 6
same,survivor count,[3],5 of 6
same,survivor count,[4],0 of 6
same,survivor count,[5],0 of 6
same,survivor count,[6],0 of 6
same,survivor count,[7],0 of 6
CCCCCCCCC(=O)NCc1ccc(OC)cc1,survivor count,"T/C endpoint: mean survival time, dose: 100.0 mg/kg/injection, schedule: Q01DX009 (ip), vehicle: other",6 of 6
O=C(CC[n+]1ccccc1)NCCCCCCNC(=O)CC[n+]1ccccc1,survivor count,[1],0 of 6
same,survivor count,[2],0 of 6
same,survivor count,[3],0 of 6
same,survivor count,[4],0 of 6
C=CS(=O)(=O)c1ccccc1,survivor count,[8],0 of 6
C#CCCCCCCCCC(=O)NCC,survivor count,[8],3 of 6
CN(CCO)/N=N/c1[nH]ncc1C(N)=O,T/C,"T/C endpoint: mean survival time, dose: 80.0 mg/kg/injection, schedule: Q01DX009 (ip), vehicle: other",130 % of control
same,T/C,"T/C endpoint: mean survival time, dose: 118.0 mg/kg/injection, schedule: Q01DX009 (ip), vehicle: other",134 % of control
same,T/C,"T/C endpoint: mean survival time, dose: 172.0 mg/kg/injection, schedule: Q01DX009 (ip), vehicle: saline with Tween-80",143 % of control
same,T/C,"T/C endpoint: mean survival time, dose: 268.0 mg/kg/injection, schedule: Q01DX009 (ip), vehicle: other",145 % of control
same,T/C,"T/C endpoint: mean survival time, dose: 1889.0 mg/kg/injection, schedule: Q01DX001 (ip), vehicle: saline with Tween-80",141 % of control
same,T/C,"T/C endpoint: median survival time, dose: 125.0 mg/kg/injection, schedule: Q01DX009 (ip), vehicle: saline",131 % of control
Clc1ccc(C(c2ccc(Cl)cc2)C(Cl)(Cl)Cl)cc1,survivor count,"T/C endpoint: mean survival time, dose: 100.0 mg/kg/injection, schedule: Q01DX009 (ip), vehicle: Klucel (hydroxypropylcellulose) (HPC)",5 of 6 and 6 of 6
same,survivor count,[9],6 of 6
same,survivor count,[8],4 of 6
same,survivor count,[7],6 of 6
same,survivor count,"T/C endpoint: mean survival time, dose: 400.0 mg/kg/injection, schedule: Q01DX009 (ip), vehicle: Klucel (hydroxypropylcellulose) (HPC)",3 of 6
same,survivor count,"T/C endpoint: mean survival time, dose: 400.0 mg/kg/injection, schedule: Q01DX009 (ip), vehicle: acetone",6 of 6
same,survivor count,"T/C endpoint: mean survival time, dose: 600.0 mg/kg/injection, schedule: Q01DX001 (ip), vehicle: saline",6 of 6
COc1cc(-c2c3c(cc4c2OCO4)CC(O)C(C(=O)O)C3)cc(OC)c1OC (centres undefined),T/C,[10],125 % of control [4 of 6 alive]
same,survivor count,[10],2 of 6
same,survivor count,"T/C endpoint: mean survival time, dose: 450.0 mg/kg/injection, schedule: Q01DX001 (ip), vehicle: Klucel (hydroxypropylcellulose) (HPC)",3 of 6
same,survivor count,"T/C endpoint: mean survival time, dose: 450.0 mg/kg/injection, schedule: Q01DX001 (ip), vehicle: saline",1 of 6
C/C=C(\C)C(=NC)Nc1ccc(Cl)c(Cl)c1,survivor count,"T/C endpoint: mean survival time, dose: 500.0 mg/kg/injection, schedule: Q01DX Z (ip), vehicle: methylcellulose (MC)",0 of 6
CCOC(=O)c1cc(OC(C)=O)c2c(ccc3cc(OC)ccc32)c1CC,survivor count,[11],6 of 6
CN(C)CCCNCC(=O)N1CCN(C(=O)CNCCCN(C)C)CC1,survivor count,"T/C endpoint: mean survival time, dose: 200.0 mg/kg/injection, schedule: Q01DX001 (ip), vehicle: carboxymethylcellulose (CMC)",2 of 4
same,survivor count,"T/C endpoint: mean survival time, dose: 400.0 mg/kg/injection, schedule: Q01DX001 (ip), vehicle: carboxymethylcellulose (CMC)",2 of 4
CSc1ccccc1N.[Cl][Cu][Cl],survivor count,[2],2 of 4
same,survivor count,[3],0 of 4
same,survivor count,"T/C endpoint: mean survival time, dose: 50.0 mg/kg/injection, schedule: Q01DX001 (ip), vehicle: saline",0 of 4
same,survivor count,[4],0 of 4
same,survivor count,[5],0 of 4
same,survivor count,[6],0 of 4
same,survivor count,[7],0 of 4
CCC(=O)c1c(C)[nH]c(C)c1C,survivor count,"T/C endpoint: mean survival time, dose: 100.0 mg/kg/injection, schedule: Q04DX003 (ip), vehicle: Klucel (hydroxypropylcellulose) (HPC)",6 of 6
same,survivor count,"T/C endpoint: mean survival time, dose: 200.0 mg/kg/injection, schedule: Q04DX003 (ip), vehicle: Klucel (hydroxypropylcellulose) (HPC)",1 of 6
same,survivor count,"T/C endpoint: mean survival time, dose: 400.0 mg/kg/injection, schedule: Q04DX003 (ip), vehicle: Klucel (hydroxypropylcellulose) (HPC)",0 of 6
CC(C)Oc1c(N(C)CCO)c2cc(Cl)ccc2oc1=O,survivor count,[12],6 of 6
CC(C)(O)C(Cl)S(=O)c1ccccc1 (centres undefined),T/C,"T/C endpoint: mean survival time, dose: 150.0 mg/kg/injection, schedule: Q03DX002 (ip), vehicle: saline with Tween-80",136 % of control
NC(=O)c1cc(Cl)ccn1,survivor count,[13],3 of 3
c1cc[c]([Sn]([c]2ccccc2)[c]2ccccc2)cc1.c1ccc([Si](c2ccccc2)c2ccccc2)cc1,survivor count,"T/C endpoint: mean survival time, dose: 25.6 mg/kg/injection, schedule: Q04DX002 (ip), vehicle: saline with Tween-80",3 of 3
O=C(O)c1cc(O)c(Br)c(O)c1,survivor count,"T/C endpoint: mean survival time, dose: 300.0 mg/kg/injection, schedule: Q01DX009 (ip), vehicle: other",6 of 6
O=[N+]([O-])c1cccc2cn[nH]c12,survivor count,"T/C endpoint: mean survival time, dose: 200.0 mg/kg/injection, schedule: Q04DX002 (ip), vehicle: saline with Tween-80",1 of 3
same,survivor count,[13],0 of 3
CCCCCCCOC(C[N+](=O)[O-])C(Cl)(Cl)Cl (centres undefined),survivor count,[9],2 of 6
same,survivor count,"T/C endpoint: mean survival time, dose: 200.0 mg/kg/injection, schedule: Q04DX003 (ip), vehicle: acetone",3 of 6
same,survivor count,"T/C endpoint: mean survival time, dose: 400.0 mg/kg/injection, schedule: Q04DX003 (ip), vehicle: acetone",0 of 6
FC(F)(F)c1ccc2c(c1)N(CCCN1CCN(CCC3OCCCO3)CC1)c1ccccc1S2,survivor count,"T/C endpoint: mean survival time, dose: 25.0 mg/kg/injection, schedule: Q01DX009 (ip), vehicle: saline",4 of 6
same,survivor count,"T/C endpoint: mean survival time, dose: 25.0 mg/kg/injection, schedule: Q04DX003 (ip), vehicle: saline",2 of 4
same,survivor count,"T/C endpoint: mean survival time, dose: 50.0 mg/kg/injection, schedule: Q01DX009 (ip), vehicle: saline",1 of 6
same,survivor count,"T/C endpoint: mean survival time, dose: 50.0 mg/kg/injection, schedule: Q04DX003 (ip), vehicle: saline",0 of 4
same,survivor count,"T/C endpoint: mean survival time, dose: 100.0 mg/kg/injection, schedule: Q01DX009 (ip), vehicle: saline",0 of 6
same,survivor count,"T/C endpoint: mean survival time, dose: 100.0 mg/kg/injection, schedule: Q04DX003 (ip), vehicle: saline",0 of 4
same,survivor count,[11],0 of 6
same,survivor count,"T/C endpoint: mean survival time, dose: 200.0 mg/kg/injection, schedule: Q04DX003 (ip), vehicle: saline",0 of 4
same,survivor count,"T/C endpoint: mean survival time, dose: 400.0 mg/kg/injection, schedule: Q01DX009 (ip), vehicle: saline",0 of 6
same,survivor count,"T/C endpoint: mean survival time, dose: 400.0 mg/kg/injection, schedule: Q04DX003 (ip), vehicle: saline",0 of 4
CN(C)N=C(Cc1ccccc1)Cc1ccccc1,survivor count,"T/C endpoint: mean survival time, dose: 200.0 mg/kg/injection, schedule: Q01DX009 (ip), vehicle: saline with Tween-80",4 of 6
same,survivor count,[12],2 of 6
